Several values for one entry are separate records, joined by “and”; a condition that tells them apart may be missing. Equal entries are not always repeated. The list shows a part of the results. Further columns of the screen follow, without active or inactive calls. The list favours compounds with an active or inconclusive main result. Potencies come from curve fits of mixed quality, noted in brackets.
Assay: Cell signaling CRE-BLA (Fsk stim)
Conditions: CHO CRE-bla reporter (cAMP response element driving beta-lactamase), forskolin EC10, beta-lactamase ratio; measured here: 460 nm blue channel
Summary of the method: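 The 460nm/530nm emission ratio after CCF4 loading defined %Activity, from which AC50 values were obtained. CRE-bla CHO cells received compound dilution series together with an EC10 level of NKH 477 for 3 hours at 37 degrees Celsius.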

SMILES | AC50
CC[C@@H]1[C@H]2CCCCN3[C@@H]2[C@@H](C[C@H]3[C@@H]2C[C@H](C)C(=O)O2)[C@@H]2[C@H]1OC(=O)[C@H]2C | 31.6 µM [falling, single point]
CC(C)c1nc2oc3c(=O)[nH]cnc3c2c2c1CCC2 | 0.794 µM [rising, full curve]
N#Cc1cc2c(=O)n3ccccc3nc2n(CCN2CCOCC2)c1=O | 25.1 µM [rising, single point]
CCCCC(=O)NCCNc1nc2c(c(=O)n(C)c(=O)n2C)n1Cc1ccc(F)cc1 | 12.6 µM [rising, partial curve]
COc1ccc(-c2nc(-c3ccc(NC(=O)c4ccncc4)cc3)no2)cc1OC | 25.1 µM [falling, single point]
O=C(Cn1cnc2c(cnn2-c2ccc(Cl)cc2)c1=O)NCC1CCCO1 (stereo unspecified) | 0.398 µM [falling, full curve, poor fit]
CCOC(=O)N1CCC(NC(=O)C2CCCN(c3nc4ccccc4o3)C2)CC1 (stereo unspecified) | 25.1 µM [rising, single point]
Clc1ccc(-n2ncc3c(NCC4CCCO4)ncnc32)cc1 (stereo unspecified) | 3.16 µM [rising, partial curve]
CC1=C(C(=O)OC2CCCCC2)C(c2ccc(C)o2)C2=C(CCCC2=O)N1 (stereo unspecified) | 12.6 µM [rising, partial curve]
COc1cc2nc(=S)n3[nH]c(CCn4nc(C)cc4C)nc3c2cc1OC | 25.1 µM [rising, single point]
COc1ccc(C2c3sc(=O)[nH]c3SC3C(=O)N(c4ccccc4)C(=O)C32)cc1 (stereo unspecified) | 2.51 µM [falling, full curve, poor fit]
c1ccc2c(NCCN3CCOCC3)nc(-c3ccoc3)nc2c1 | 15.8 µM [rising, partial curve]
CC(C)(C)n1ncc2c(=O)n(CC(=O)NCCc3ccccc3)cnc21 | 12.6 µM [rising, single point]
O=C(Cn1cccc1C(=O)c1ccccc1)NCc1cccnc1 | 25.1 µM [rising, single point]
Cc1ccccc1-n1nnc2c(=O)oc3ccccc3c21 | 31.6 µM [falling, single point]
Cc1cccc(-n2c(N)c(C(=O)NCCN3CCOCC3)c3nc4ccccc4nc32)c1 | 12.6 µM [rising, partial curve]
CCCOc1ccc(C2C(=O)N(C3CCCCC3)CC(=O)N2CCC)cc1OC (stereo unspecified) | 6.31 µM [rising, partial curve]
O=C(O)c1cc(O)c2c(c1)C(=O)c1cccc(O)c1C2=O | 7.94 µM [rising, partial curve, poor fit]
O=C(Nc1nc2c(ccc3ccccc32)s1)c1ccco1 | 12.6 µM [falling, partial curve]
O=C(NC1CCCCC1)N(CCN1CCOCC1)Cc1cc2cc3c(cc2[nH]c1=O)OCCO3 | 10 µM [rising, partial curve]
Cn1c(=O)[nH]c(=O)c2c1nc(N1CCCCCC1)n2CCCSc1nc2ccccc2o1 | 0.398 µM [rising, single point]
Cc1ccc(N2C(=O)C3C(C2=O)C(C(=O)c2ccc(Cl)cc2)N2CCCC32)cc1 (stereo unspecified) | 3.16 µM [falling, full curve]

SMILES | AC50
NC(=NCc1ccccc1)NC(=O)c1nc(Cl)c(N)nc1N | 12.6 µM [falling, single point]
O=C(c1cnccn1)N1CCC2(CC1)CCN(c1ncccn1)CC2 | 5.01 µM [falling, single point]
CCN(CC)S(=O)(=O)c1ccc(C(=O)Nc2ncn(Cc3ccccc3)n2)cc1 | 0.02 µM [falling, full curve, poor fit]
CCc1nnc(NC(=O)c2cccc(C(=O)Nc3nnc(CC)s3)n2)s1 | 0.0631 µM [falling, full curve, poor fit]
CCOC(=O)c1[nH]c2ccccc2c1NC(=O)c1cc(OC)c(OC)c(OC)c1 | 2.51 µM [rising, partial curve]
COc1ccc(N/C=C2\CCOC2=O)cc1 | 0.398 µM [rising, full curve]
COCCOc1ccc(C(F)(F)F)cc1Nc1nc2ccccc2o1 | 10 µM [rising, partial curve]
COc1ccccc1CNC(=O)C1CCN(S(C)(=O)=O)CC1 | 0.00398 µM [falling, full curve, poor fit]
CCc1c2c(nc3c(C(C)C)cccc13)-c1cccc(=O)n1C2 | 10 µM [rising, partial curve]
CC(C)CCn1c(CN(C)Cc2ccccc2)nc2c1c(=O)n(C)c(=O)n2C | 0.01 µM [falling, full curve, poor fit]
c1ccc2[nH]c(SCc3ccc(-c4nnco4)cc3)nc2c1 | 15.8 µM [rising, single point]
CCN1/C(=C/C(=O)c2ccco2)Sc2ccccc21 | 10 µM [rising, partial curve]
COc1cc2nc3c(c([Si](C)(C)C(C)(C)C)c2cc1OC)Cn1c-3cccc1=O | 12.6 µM [rising, partial curve]
CC1CCCCC1n1c(=S)[nH]c2ccccc2c1=O (stereo unspecified) | 12.6 µM [rising, partial curve]
COCCn1c(=O)c(CCc2ccccc2)nc2cnc(N(C)C)nc21 | 12.6 µM [rising, partial curve]
COc1ccccc1NC(=O)c1ccccc1NS(C)(=O)=O | 1.26 µM [rising, full curve]
CCCCc1ccc(NS(=O)(=O)N(C)C)cc1 | 0.0251 µM [rising, full curve]
CCNC(=O)c1ccccc1NC(=O)c1cccc(S(=O)(=O)N2CCC(C)CC2)c1 | 12.6 µM [rising, partial curve]
Cc1ccc(C2CC(c3ccccc3OC(F)F)Nc3ncnn32)cc1 (stereo unspecified) | 15.8 µM [rising, single point]
COc1cc(C(c2sc3nc(C)nn3c2O)N2CCc3ccccc3C2)cc(OC)c1OC (stereo unspecified) | 12.6 µM [rising, partial curve]
CN1CCCC[C@@H]1CCN1c2ccccc2Sc2ccc(S(C)=O)cc21 (stereo partly specified) | 0.0316 µM [rising, full curve, poor fit]
CCC(C(=O)N1CCc2cc(OC)c(OC)cc2C1)c1ccccc1 (stereo unspecified) | 10 µM [falling, partial curve, poor fit]

Given as a markdown table: 3 of the compounds above.

| SMILES | AC50 |
| --- | --- |
| CCOC(=O)N1CCC(NC(=O)C2CCCN(c3nc4ccccc4o3)C2)CC1 (stereo unspecified) | 25.1 µM [rising, single point] |
| Clc1ccc(-n2ncc3c(NCC4CCCO4)ncnc32)cc1 (stereo unspecified) | 3.16 µM [rising, partial curve] |
| CC1=C(C(=O)OC2CCCCC2)C(c2ccc(C)o2)C2=C(CCCC2=O)N1 (stereo unspecified) | 12.6 µM [rising, partial curve] |

Following part.

SMILES | AC50
Cc1nccn1-c1c2c(c(C#N)c3nc4ccccc4n13)CCC2 | 3.16 µM [rising, partial curve]
CCN(CC)C(=O)c1sc2nc(-c3ccccn3)[nH]c(=O)c2c1C | 10 µM [rising, partial curve]
CCn1c(SCC(=O)N2CCCc3ccccc32)nc2ccccc2c1=O | 12.6 µM [rising, single point]
C=C1C(=O)O[C@@H]2[C@@H]1CC/C(C)=C\CC[C@@]1(C)O[C@H]21 | 15.8 µM [falling, partial curve] and 5.01 µM [falling, partial curve]
c1ccc(-c2nc(NC3CC3)nc(-n3ccnc3)n2)cc1 | 0.251 µM [rising, full curve]
N#CC1=C(N)SC(N)=C(C#N)C1c1cccc(Oc2ccccc2)c1 | 25.1 µM [falling, single point]
Cc1ccc(C)c(N2CCN(C(=O)CCCn3c(=S)[nH]c4cc5c(cc4c3=O)OCO5)CC2)c1 | 1.58 µM [rising, full curve]
O=C(CS(=O)(=O)Cc1ccccc1)N1CCN(Cc2ccc3c(c2)OCO3)CC1 | 3.98 µM [falling, partial curve, poor fit]
CCC/C(O)=C1\C(=O)CC(C)(C)CC1=Nc1ccc(OC)cc1OC | 3.16 µM [rising, partial curve]
COc1cc(C(c2nnnn2C(C)(C)C)N2CCN(c3nc4ccccc4s3)CC2)ccc1O (stereo unspecified) | 7.94 µM [falling, partial curve]
CCCC(=O)NCCc1cc2cc(C)c(C)cc2[nH]c1=O | 2.51 µM [rising, single point]
Cc1cc(N2CCN(c3ccccc3)CC2)nc(-n2nc(C)cc2C)n1 | 12.6 µM [rising, partial curve]
Cc1nnc(SCCn2c(N3CC(C)CC(C)C3)nc3c2c(=O)[nH]c(=O)n3C)s1 (stereo unspecified) | 12.6 µM [rising, single point]
CCOC(=O)C1Cn2c(nc3c(c2=O)C(C)(CC)Cc2ccccc2-3)S1 (stereo unspecified) | 12.6 µM [rising, single point]
O=C(c1cccc(-c2nnc(-c3ccccc3)o2)c1)N1CCCCC1 | 12.6 µM [rising, partial curve, poor fit]
CC(=O)Nc1cccc(NC(=O)CSc2ncc(-c3ccc(Cl)cc3)n2Cc2ccco2)c1 | 31.6 µM [falling, single point]
Cc1nc2ncnn2c(C)c1CCC(=O)N1CCOCC1 | 5.01 µM [falling, partial curve]
CCNc1ncc2nc(C)c(=O)n(Cc3ccc(F)cc3)c2n1 | 7.94 µM [rising, partial curve]
O=C(Nc1ccccc1C(F)(F)F)C1CC(=O)N(c2ccccc2F)C1 (stereo unspecified) | 2.51 µM [falling, single point]
O=C(Nc1ccc2c(c1)OCCO2)NC1CCCCC1 | 0.02 µM [rising, full curve, poor fit]
CCOC(=O)c1sc(-c2ccccc2)cc1NC(=O)CSc1nnnn1C | 10 µM [rising, partial curve]
OC(COc1cccc2ccccc12)CN1CCN(c2ccccn2)CC1 (stereo unspecified) | 0.1 µM [falling, full curve, poor fit]
